107 sequences from PubChem BioAssay AID1508600 (Functional Genomics Laboratory (NCATS/FGL), 2020) can be followed below.

Among all 53,000 sequences or so, about 3,700 (7%) were called active.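 Rule for the calls: active = gene knockdowns whose robust z-score for IL-1 alpha signal is at least 2 or at most -2, so actives lie on both sides; inactive = the rest.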 The list shows a part of the results.

This assay is described as follows: Components of the Cytosolic LPS Sensing Pathway: Gene Identification via Genome-wide siRNA Screen.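 Note: robust z of the log signal after scaling to non-targeting control siRNA wells of the plate.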 Particulars: RAW264.7 macrophages, IL-1a HTRF, actives lie on both sides, screened at 100 nM (by protocol), cells primed 5 h with Pam3CSK4 first. An outline of the steps:
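IL-1a HTRF of supernatants after 24 hour LipidA transfection of Pam3CSK4-primed (5 hours) RAW264.7 cells, 48h post-siRNA transfection (100 nM). Scores: percent of plate negative-control median, then log-based robust z-score.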
(TR-FRET usually uses a lanthanide donor and a delayed reading to cut background.)
With CGGCCAUUUACCAUACGUUTT against Slc15a1, the z-score was inactive: -1.05. Under GCUCCUUCCCGUUUCUAGATT against Tex47 stands inactive: -1.79.

Turning to GGACAAAAGGCUGAGCAUCTT against Flt1, the z-score is inactive: -0.235.

In the case of CCCACCCAGGCAAUAAAAUTT against Fstl3, the z-score was inactive: 0.105. Under GGGUUAUGGUAGAUUAUCUTT against Tor4a stands inactive: -0.376; under GCGAUUUGGCUUGCCAAGATT against Zfp622, inactive: -0.468. Under GGCUACAUCCCUGAACACUTT against Ndufb5 stands inactive: 0.231. In the case of GGUUUCAAGACAUUGAAAGTT against Arl14ep, the z-score was inactive: -0.424. The result for GGCAUCAAGCAAUUCACUCTT against Zfp455 reads inactive: 1.14; that for GGAAGUCACAGGGAUGUUGTT against Rbm45, inactive: 1.51. As for GCAUUGUCCGAGGUUUAUUTT against Tspan33, the z-score is inactive: 0.64. The result for GGGAAUUUUUGUGGGUGAATT against Bbs2 reads inactive: -0.541. Under CUUAGACCCAAUUCAAUUCTT against Zfp667 stands inactive: -0.0845; under CCUCGGAUAAGGUUAUUGCTT against Smg6, inactive: 0.767. Under GCCUUCUCCCAUGUCUAAATT against Bmp15 stands inactive: 0.342. For the sequence GGAGCUGAGAUCAAUUCAATT against Ankrd17, the z-score was inactive: 1.88. As to GGUCAACGUAAAUUGUUCATT against Plppr5, the z-score is active: 2.94. The result for GCAAGAAAAUUGCACGUUGTT against Maco1 reads inactive: 0.281; that for CCUGGAAUCCCAAGAACAGTT against Thap1, inactive: -0.0945. Under GGGAACCUCUAUGACAAAATT against Nek9 stands inactive: 0.723; under GGUCUCUCAUUACCACAUUTT against Olfr69, inactive: 1.75. Under GCGGAAUAUGUAAAAUCUCTT against Ppm1l stands inactive: -0.447; under GGCCUUAUCUCCCACAUCATT against Gm4952, inactive: 0.968; under GGAUCCUAGAAGCAGUUGCTT against Car4, inactive: -0.283.

Take GUUCAUGUCUAUCCUGUCUTT against Hba-x: the z-score is active: -2.45. The result for GGCCUAAAAAGCAACAUGUTT against Cuzd1 reads inactive: 1.88. For the sequence GGAAUUUCUACGGAAACAATT against Myom2, the z-score was inactive: 1.23. Under GGGCUAUGAGAAGUUGCUATT against Gnptg stands inactive: 0.353; under CCUUCUCAUAGUGAAAGUATT against Zkscan5, inactive: 1.05. The result for GGAAGAGGAACAGUUAGCCTT against Zfp553 reads inactive: -0.24. Under GCCCAUCAGACUUCUACUUTT against Slc22a17 stands inactive: -0.754. For GGCCUUUAGCACCUGUGUGTT against Olfr583, the z-score was inactive: -1.7. Under “GGUGCUAUGUGCGUUUGAUTT against 9830107B12Rik” stands inactive: 1.97; under GGAUCAAGCCGAACAGUUCTT against Pigk, active: 2.34; under GCUUAAGGAUCCAUAAUGUTT against Musk, inactive: 0.981. Under CGACAAAAGCCACCUUUCGTT against Tm4sf4 stands active: -2.62. The result for GCCCUAGCUUGUAUGGUUCTT against Rsad1 reads inactive: 0.59; that for GGCCUGGCUGUGGAAUUCATT against Pvt1, inactive: 0.141. For the sequence GGCCAUUCUACUAACAGUATT against Tmed10, the z-score was inactive: -1.31. Regarding CCAUCACUAGUGAUCAUUATT against Gm5115, the z-score is inactive: -1.7.

Consider GGAUAGAGCACAGAUCCAGTT against St8sia5, for which the z-score was active: 2.38.

Take CCUAUAAGAUGUGCUCUAUTT against Carhsp1: the z-score was inactive: 0.823. The result for GCUUAUCGAAUUCUUCUCCTT against Cnpy2 reads inactive: 0.417; that for CCGCUAUCCUCUAUCUCCATT against Dhx34, inactive: -0.436; that for GGAGAAUCCUGUUUUUUGUTT against Elp4, inactive: 0.43. Turning to UGUCAGUGCAGAAUAGCACTT against Olfr658, the z-score was inactive: -1.17.

For the sequence CCAUGAUUUACAAUACUACTT against Cebpg, the z-score is inactive: -0.89.

With GGUAUGUGGCAUUUAUUUGTT against Hif1a, the z-score was inactive: 0.986. For CCUAUGAAUCUUACAGGACTT against Zfp955a, the z-score is inactive: 0.313. With “GGAACUUGGCCUACUUAUGTT against C130071C03Rik”, the z-score is inactive: 0.718. The result for GGCUGAACAAAGGUAGAGATT against Ccl1 reads inactive: -0.499.

For GUUGGAGUUGAGUGAUAUUTT against Krtap3-3, the z-score was inactive: -0.269. The result for GGUAUAAGGAAGGCCUUCUTT against Olfr186 reads inactive: -1.65; that for GCUUCUGUGGGCAACAGUUTT against Cryba1, inactive: 0.0577. The result for GGAAAUCCCACCUGUGCCATT against Col8a1 reads inactive: 0.473; that for GGCGAACACUGUUUGAAGCTT against Ercc5, inactive: 0.294. Under GCUACUUUCUAAGUGCCAUTT against Pdcd4 stands inactive: -0.975; under GGUUCUGUUGUGUGAGGAGTT against Gimap1, inactive: -0.824. As for GCAAAGGAUUGUUAAACUATT against Manba, the z-score was inactive: 1.49. Under GGAUUUGGGCCCAUUUUUGTT against Cntn1 stands inactive: 0.913; under GGUCAUCAACAGCAAAAACTT against Lin37, inactive: -1.93.

Turning to CAGCUUGUGCUCGAGUAAATT against Gm3579, the z-score is inactive: -1.14. The result for GGGAGAUGGCGUGACAGAATT against Trappc3 reads inactive: 0.503; that for GGACUCAGAAUUUUUUUGUTT against Mllt3, inactive: 0.193. As for GCAUGUGGUUUCUAUAUAUTT against Sertad4, the z-score was inactive: -0.874. The result for “GGUGGUGACAGCUGAACAATT against 4732465J04Rik” reads inactive: 0.21; that for GGUCGCUUUGGCAUUAUGGTT against Mrpl22, inactive: -0.373; that for CCAAACCAGAAUGUUAAAATT against Fgf12, inactive: -0.391. For “GGCAUCUGUAAGAUGUACGTT against 1700018B24Rik”, the z-score is inactive: 1.32. The result for GUGGUUUCGGUGCUUGGGUTT against Svs3a reads inactive: -0.516; that for GGGUCUAAGAUGCAAACGCTT against Flt3l, inactive: -0.0742. The result for UUUAUACUUCCCUGAUUUUTT against Olfr943 reads inactive: -0.409; that for GCUGCUCCCUCUAAUAAAATT against Cbr1, inactive: -0.913.

As for “GCUAUGUUUAGGCACAAUATT against C130023O10Rik”, the z-score was inactive: -0.341. The result for GGAAUAUGAGUUUUCUCAGTT against Zfp68 reads inactive: 0.125; that for GCAAAGAUUCAGGCCUGUGTT against Tle6, inactive: -0.873; that for GGAAACAAGGAAACAACAGTT against Iqcf4, inactive: 1.85. GGGAAGGCAAUUUAAAAAATT against Cfap36: the z-score is inactive: 0.143. The result for GGGCUUAUUUAAAAAGAAGTT against Foxa1 reads inactive: -0.196. The result for GGCAAUCAAUUGGUAGGUATT against Gm5089 reads inactive: -0.233. The result for GGCAAAGCACUGGUUGUGUTT against Sptlc3 reads inactive: 0.286.

Regarding GGAUACAGCCUGCCAGUUCTT against Casz1, the z-score is inactive: 0.878. Under CCUGGUGCUAUGGACUAAATT against Tectb stands inactive: -1.15.

GGCAAAAAGAUAGGAGCUGTT against Txn1: the z-score was inactive: 0.57. Consider GGCUGUGGAAAACAGUAGUTT against Psma3, for which the z-score is inactive: -1.84. The result for GGUUUUCCCUCCAGAUGAGTT against Mtch1 reads inactive: -0.336; that for GCCAAUUGUGUCUAAAUUUTT against Trim30b, inactive: 1.55; that for GCCCAAAGUACAUUUGGUGTT against Dbndd1, inactive: 0.748. In the case of CGUAAAAGGACUCUACAAATT against Papss2, the z-score was inactive: 1.19. Under GGCGCAUUAUGGAGACUCATT against Cebpe stands inactive: 0.526. The result for GGACUUUGCGUAUAGCCCUTT against Tulp3 reads inactive: -0.381; that for GGAGGAAGAUGGUCAUUCCTT against Tgs1, inactive: -1.16. The result for GCACUUUGCACACUUAUUATT against Iqub reads inactive: 0.532; that for CGCAACAGCUAGGAUUUUUTT against Me1, inactive: 0.193. Regarding GGCUGUUCGUGCAAGCCUATT against Bahcc1, the z-score was inactive: 0.544. The result for UGUUGUUUUACCUGUGCCUTT against Gm10283 reads inactive: -1.14. As to GGAGAUCCACGAUUUGUUCTT against Adck1, the z-score was inactive: 1.87. Under GGUACAGUAUGUGAUUCAATT against Babam2 stands inactive: 0.0103; under GGAUGUAUAACUUUUUCUCTT against Pltp, inactive: 0.46; under CGCUAUGGUUUCUCAGCUUTT against Myh4, inactive: -0.02. The result for CCCAAGUUUGUAAAAGAAUTT against Cldnd1 reads inactive: 0.474; that for GCUAAGAAUGAGCAUUAUCTT against Npr2, inactive: -1.47; that for CCUAUUAUUCCAACUUUUGTT against Cercam, inactive: -0.0904.

As to GGAGGCCGUAAUAUCUCCUTT against Krt13, the z-score was inactive: -0.0683. The result for GGGCAGCAGCAAUUUCUGUTT against Ahcyl1 reads inactive: 1.39; that for GGUGAAACGACUGUUAAGUTT against Pde7b, inactive: 0.0774. The result for GGAUCAUGUGUCAGUAACATT against Hmgn2 reads inactive: -0.734.
